Test results as given in PMC9156947.
These are yes or no findings as the source states them, for the method shown. For some assays here: Binding seen in cells or lysates may run through a third protein. Some binding calls cover weakened binding; strength is not graded here.

Chains of the proteins cited; added tags and fusions are not shown.
UniProt O95793: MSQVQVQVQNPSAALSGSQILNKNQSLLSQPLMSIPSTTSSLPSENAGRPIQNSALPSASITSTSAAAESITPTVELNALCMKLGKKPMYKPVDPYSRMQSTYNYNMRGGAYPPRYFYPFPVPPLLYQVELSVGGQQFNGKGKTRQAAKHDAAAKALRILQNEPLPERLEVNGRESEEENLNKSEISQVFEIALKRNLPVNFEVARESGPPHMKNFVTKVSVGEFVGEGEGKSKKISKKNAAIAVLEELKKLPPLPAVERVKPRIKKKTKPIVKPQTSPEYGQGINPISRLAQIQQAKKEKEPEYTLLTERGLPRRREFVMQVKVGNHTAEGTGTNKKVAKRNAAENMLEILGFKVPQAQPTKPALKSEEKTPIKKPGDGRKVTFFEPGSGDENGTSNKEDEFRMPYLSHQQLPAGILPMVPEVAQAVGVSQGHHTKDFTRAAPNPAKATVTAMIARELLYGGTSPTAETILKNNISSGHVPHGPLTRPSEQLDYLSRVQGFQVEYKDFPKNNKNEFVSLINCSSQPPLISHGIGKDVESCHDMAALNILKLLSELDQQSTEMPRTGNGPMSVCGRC
UniProt Q13148: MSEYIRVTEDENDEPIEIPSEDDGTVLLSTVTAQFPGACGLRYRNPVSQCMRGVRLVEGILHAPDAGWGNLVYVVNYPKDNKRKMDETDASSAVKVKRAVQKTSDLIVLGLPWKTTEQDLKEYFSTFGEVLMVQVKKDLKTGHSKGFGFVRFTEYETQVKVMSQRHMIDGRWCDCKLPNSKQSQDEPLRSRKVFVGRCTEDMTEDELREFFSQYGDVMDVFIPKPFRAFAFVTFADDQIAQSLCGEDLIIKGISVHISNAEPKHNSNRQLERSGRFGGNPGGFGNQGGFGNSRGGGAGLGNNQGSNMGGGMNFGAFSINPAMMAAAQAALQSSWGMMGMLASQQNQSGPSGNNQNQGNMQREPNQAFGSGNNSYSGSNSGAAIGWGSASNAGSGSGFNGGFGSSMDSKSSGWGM
UniProt P25788: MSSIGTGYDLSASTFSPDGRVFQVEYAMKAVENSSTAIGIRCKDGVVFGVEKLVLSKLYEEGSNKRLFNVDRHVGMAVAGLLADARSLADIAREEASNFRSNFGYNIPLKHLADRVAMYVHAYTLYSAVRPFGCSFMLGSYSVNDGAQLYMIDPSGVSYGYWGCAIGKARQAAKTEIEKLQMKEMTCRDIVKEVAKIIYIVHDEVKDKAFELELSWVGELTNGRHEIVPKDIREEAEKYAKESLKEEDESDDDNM
UniProt Q12962: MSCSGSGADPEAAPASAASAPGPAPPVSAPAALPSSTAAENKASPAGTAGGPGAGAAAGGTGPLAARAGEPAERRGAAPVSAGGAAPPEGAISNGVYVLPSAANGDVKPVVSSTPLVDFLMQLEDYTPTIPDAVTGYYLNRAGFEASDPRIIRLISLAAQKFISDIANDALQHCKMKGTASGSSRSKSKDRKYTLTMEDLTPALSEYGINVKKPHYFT
UniProt O14818: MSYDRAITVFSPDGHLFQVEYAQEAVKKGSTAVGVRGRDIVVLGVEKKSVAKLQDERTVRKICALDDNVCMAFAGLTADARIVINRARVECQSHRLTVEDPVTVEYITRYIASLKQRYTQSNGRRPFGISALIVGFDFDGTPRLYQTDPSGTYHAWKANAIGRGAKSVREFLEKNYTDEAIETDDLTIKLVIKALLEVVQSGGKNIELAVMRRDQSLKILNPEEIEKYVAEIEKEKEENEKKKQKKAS
UniProt P03146: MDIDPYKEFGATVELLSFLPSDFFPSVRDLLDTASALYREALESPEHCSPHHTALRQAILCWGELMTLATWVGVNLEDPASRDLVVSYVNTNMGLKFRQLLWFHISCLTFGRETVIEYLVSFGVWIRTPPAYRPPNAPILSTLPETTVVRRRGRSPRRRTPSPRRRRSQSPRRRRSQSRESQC
UniProt P25786: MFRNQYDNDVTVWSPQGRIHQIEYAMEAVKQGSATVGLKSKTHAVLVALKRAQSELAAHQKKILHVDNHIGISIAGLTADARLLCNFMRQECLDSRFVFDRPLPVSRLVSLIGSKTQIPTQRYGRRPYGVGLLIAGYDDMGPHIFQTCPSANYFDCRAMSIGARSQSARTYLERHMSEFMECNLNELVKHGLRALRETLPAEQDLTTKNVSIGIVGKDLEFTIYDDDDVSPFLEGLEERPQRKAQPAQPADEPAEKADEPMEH
UniProt O14929: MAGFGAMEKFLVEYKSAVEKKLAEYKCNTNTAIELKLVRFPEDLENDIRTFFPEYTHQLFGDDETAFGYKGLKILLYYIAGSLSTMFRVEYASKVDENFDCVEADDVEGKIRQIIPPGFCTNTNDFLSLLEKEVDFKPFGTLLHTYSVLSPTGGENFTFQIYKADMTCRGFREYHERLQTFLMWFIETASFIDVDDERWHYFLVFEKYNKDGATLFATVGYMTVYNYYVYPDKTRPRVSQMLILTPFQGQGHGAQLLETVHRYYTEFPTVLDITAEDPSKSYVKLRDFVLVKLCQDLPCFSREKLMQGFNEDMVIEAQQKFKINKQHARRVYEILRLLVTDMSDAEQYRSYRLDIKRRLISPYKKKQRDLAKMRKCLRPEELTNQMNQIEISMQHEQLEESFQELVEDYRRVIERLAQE

What was measured:
[1] = target: 3HA-HBx (hepatitis B virus) (UniProt P03165); test: co-IP; IP assays, data not shown; HBx with 20S proteasome subunits, with or without STAU1
3Flag-STAU1 = 3Flag-STAU1 (UniProt O95793); test: co-IP; protein extracts of transfected cells immunoprecipitated with primary antibody or IgG at 4 °C overnight, protein A/G magnetic beads, washed 4 times, Western blot
C10-STAU1 = C10-STAU1 (UniProt O95793); test: split reporter; tripartite Nanoluc luciferase: C10-tagged and N8-tagged proteins co-transfected with a plasmid expressing Nano1-7 into HepG2 cells; luciferase activity measured 48 h post-transfection
[2] = target: TARDBP recombinant protein (UniProt Q13148); test: native gel or EMSA; both purified
[3] = target: 3HA-HBx (hepatitis B virus) (UniProt P03165); test: co-IP; protein extracts of transfected cells immunoprecipitated with primary antibody or IgG at 4 °C overnight, protein A/G magnetic beads, washed 4 times, Western blot
3HA-TARDBP = 3HA-TARDBP (UniProt Q13148); test: as above

For “PSMA3 (20S proteasome subunit) (from UniProt P25788 1-255)”, which binding [1] is on record?
Its binding is “binds”.

For “TAF10 (as used in the co-IP with STAU1) (from UniProt Q12962 1-218)”, which binding (3Flag-STAU1) is on record?
The binding was “binds”.

“N8-HBx with residues 1-30 deleted (from UniProt P03165 31-154) (domain or fragment)” was tested. Which binding (C10-STAU1) did it give?
The binding was “binds”.

Which binding [1] does the source give for “PSMA7 (20S proteasome subunit) (from UniProt O14818 1-248)” here?
Its binding is “binds”.

“STAU1 recombinant protein (from UniProt O95793 1-577)” was tested. Which binding [2] did it give?
Its binding is “binds”.

N8-HBc (from UniProt P03146 1-183) was tested. Which binding (C10-STAU1) did it give?
The binding was “no binding”.

“3HA-HBx with residues 121-154 deleted (from UniProt P03165 1-120) (domain or fragment)” was tested. Which binding (3Flag-STAU1) did it give?
Its binding is “no binding”.

Which results are given for 3Flag-STAU1 (from UniProt O95793 1-577)?
binding [3]: binds; binding (3HA-TARDBP): binds

For 3HA-HBx (from UniProt P03165 1-154), which binding (3Flag-STAU1) is on record?
Its binding is “binds”.

With “PSMA1 (20S proteasome subunit) (from UniProt P25786 1-263)” as the substance, how does the binding [1] read?
The binding was “binds”.

How did the binding (3Flag-STAU1) turn out when “HAT1 (as used in the co-IP with STAU1) (from UniProt O14929 1-419)” was run?
Its binding is “binds”.

How did the binding (C10-STAU1) turn out when “N8-HBx with residues 121-154 deleted (from UniProt P03165 1-120) (domain or fragment)” was run?
Its binding is “no binding”.

With “3HA-HBx with residues 1-30 deleted (from UniProt P03165 31-154) (domain or fragment)” as the substance, how does the binding (3Flag-STAU1) read?
Its binding is “binds”.
